According to patent US20210137990A1, “METHODS FOR EXP ANDING ADIPOSE-DERIVED STEM CELLS” (CELLECT BIOTHERAPEUTICS LTD., priority 2018, published 2021):
At least one structure is not confirmed: it was looked up by name or label, or the drawing left a doubt.

Tested on: ASCs
Assay: ASC proliferation with Fas-L and inhibitors for 4 days, cell counts
Format: cell-based, human
Conditions: for cell quantities: mega Fas-L, Z-VAD-fmk plus inhibitor; for Fas-L-dependent proliferation of ASCs: inhibitor added to Fas-L
Description: The dual effect of Fas-L on the apoptosis and proliferation of ASCs, can be mediated solely by canonical Fas-L signaling or through two distinct pathways. To distinguish between these possibilities, ASCs were either left untreated, treated with Fas-L only or treated simultaneously with Fas-L and with the pan-caspase inhibitor […], for 4 days. Importantly, to better evaluate the apoptotic cue of Fas-L, a different Fas-L derivative (mega-Fas-L), which induces high rates of apoptosis in passage 3 ASCs, was used in the current experiments. Sub-G1 proportions and cell numbers were determined by PI cell-cycle flow cytometry analysis and standard cell counts respectively. The experiment was repeated 3 times using cells from 3 independent patients.
Accordingly, cultured Passage 2-4 ASCs were treated with a combination of mega Fas-L, Z-VAD-fmk, LY294002 (PI3K inhibitor), AZD6244 (ERK-1/2 inhibitor) and SP600125 (JNK inhibitor) for 4 days.
After 4 days, cells were removed from plates by trypsin and cells were counted using a standard cell counter. The experiment was repeated 3 times using cells from 3 independent patients.
To test the effects of inhibitors on proliferation of mature ASCs (P2 and P3 ASCs), cells were seeded into 24-well plates (10.000 cells/well) and allowed to attach and grow for 24 h. Then, medium was exchanged for fresh normal growth medium or growth medium supplemented with Fas-L or with Fas-L and one of the inhibitors. Cells were then cultured for 4 days.
At the end of the incubation period, adherent cells were trypsinized, collected and counted with a TC10 Automated Cell Counter (Bio-rad).

| SMILES | ASC counts compared to cells treated with Fas-L only (P2-4 ASCs, mega Fas-L plus inhibitor, 4 days) | cell quantities (P2-4 ASCs, 4 days) | Fas-L-dependent proliferation of ASCs |
| --- | --- | --- | --- |
| O=c1cc(N2CCOCC2)oc2c(-c3ccccc3)cccc12 [LY294002] | reduced ASC counts | comparable to untreated control | could be inhibited |
| Oc1c2ccccc2c2c3c(cccc13)N=N2 [SP600125] | – | population doubling | but not |
